Our source for the binding values is article PMC7188823, “The BRCA2-MEILB2-BRME1 complex governs meiotic recombination and impairs the mitotic BRCA2-RAD51 function in cancer cells” (Nature Communications, 2020).

These are yes or no findings as the source states them, for the method shown. For some of these results: Binding can be weak; no strength is given. For some of these results: Binding seen in cells or lysates may run through a third protein. For some of these results: Sequences can lack the tags named with a protein.

Assay [1] deals with T1, MEILB2 (bait of the Y2H assay, in pGBKT7) (mouse) (UniProt Q9D4G2).
T1 sequence: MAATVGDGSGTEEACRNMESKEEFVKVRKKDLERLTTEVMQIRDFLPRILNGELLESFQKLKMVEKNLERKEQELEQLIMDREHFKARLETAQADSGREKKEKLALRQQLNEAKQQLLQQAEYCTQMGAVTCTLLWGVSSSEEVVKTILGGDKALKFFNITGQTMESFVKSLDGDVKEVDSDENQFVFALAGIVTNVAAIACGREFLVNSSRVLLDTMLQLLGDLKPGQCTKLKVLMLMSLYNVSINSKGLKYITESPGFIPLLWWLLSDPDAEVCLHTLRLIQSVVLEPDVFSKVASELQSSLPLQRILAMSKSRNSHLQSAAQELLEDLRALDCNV
Description: two-hybrid; baits in pGBKT7, Brme1 preys in pGADT7, co-transformed into AH109; SD–tryptophan–leucine–histidine–adenine.

For assay [2], the target named is BRME1 (endogenous, mouse testis) (mouse (endogenous in testis)). Kind of assay: co-IP; IPs with the BRME1 or BRCA2 antibodies on Dynabeads protein A from mouse testis extracts; wash with 400 mM KCl buffer; western blotting. Background: Immunoblotting shows a protein as a band on a membrane.
For assay [3], the target named is FLAG-tagged BRME1 F (a.a. 1–605) (mouse). Kind of assay: co-IP; IP with the FLAG antibody (Anti-FLAG M2 Magnetic Beads) from B16-F1 cells expressing MEILB2-MYC and FLAG-BRME1 truncations; wash with 400 mM KCl buffer.
The target of assay [4] is FLAG-tagged BRME1 MBD (a.a. 519–600) (mouse). The description is as above.
The target of assay [5] is FLAG-tagged BRME1 N (a.a. 1–518) (mouse). The assay is described as above.

Consider “BRME1-MBD (a.a. 519–600), Y2H prey (mouse) (domain or fragment)”, for which the binding result in assay [1] was “binds”.

As to “BRME1-N (a.a. 1–518), Y2H prey (mouse) (domain or fragment)”, the binding result in assay [1] is “no binding”.

B1: DMC1 (endogenous, mouse testis) (protein, UniProt Q61880 1-340)
chain: MKEDQVVQEESGFQDDEESLFQDIDLLQKHGINMADIKKLKSVGICTIKGIQMTTRRALCNVKGLSEAKVEKIKEAANKLIEPGFLTAFQYSERRKMVFHITTGSQEFDKLLGGGIESMAITEAFGEFRTGKTQLSHTLCVTAQLPGTGGYSGGKIIFIDTENTFRPDRLRDIADRFNVDHEAVLDNVLYARAYTSEHQMELLDYVAAKFHEEAGIFKLLIIDSIMALFRVDFSGRGELAERQQKLAQMLSRLQKISEEYNVAVFVTNQMTADPGATMTFQADPKKPIGGHILAHASTTRISLRKGRGELRIAKIYDSPEMPENEATFAITAGGIGDAKE
B1: the binding result in assay [2] is “no binding”.

B2: MEILB2 (endogenous, mouse testis) (protein, UniProt Q9D4G2 1-338)
chain: MAATVGDGSGTEEACRNMESKEEFVKVRKKDLERLTTEVMQIRDFLPRILNGELLESFQKLKMVEKNLERKEQELEQLIMDREHFKARLETAQADSGREKKEKLALRQQLNEAKQQLLQQAEYCTQMGAVTCTLLWGVSSSEEVVKTILGGDKALKFFNITGQTMESFVKSLDGDVKEVDSDENQFVFALAGIVTNVAAIACGREFLVNSSRVLLDTMLQLLGDLKPGQCTKLKVLMLMSLYNVSINSKGLKYITESPGFIPLLWWLLSDPDAEVCLHTLRLIQSVVLEPDVFSKVASELQSSLPLQRILAMSKSRNSHLQSAAQELLEDLRALDCNV
For the molecule B2, in assay [2], the binding result is reported as “binds”.

B3: MYC-tagged MEILB2 (MEILB2-MYC) (protein, UniProt Q9D4G2 1-338)
chain: MAATVGDGSGTEEACRNMESKEEFVKVRKKDLERLTTEVMQIRDFLPRILNGELLESFQKLKMVEKNLERKEQELEQLIMDREHFKARLETAQADSGREKKEKLALRQQLNEAKQQLLQQAEYCTQMGAVTCTLLWGVSSSEEVVKTILGGDKALKFFNITGQTMESFVKSLDGDVKEVDSDENQFVFALAGIVTNVAAIACGREFLVNSSRVLLDTMLQLLGDLKPGQCTKLKVLMLMSLYNVSINSKGLKYITESPGFIPLLWWLLSDPDAEVCLHTLRLIQSVVLEPDVFSKVASELQSSLPLQRILAMSKSRNSHLQSAAQELLEDLRALDCNV
As to B3, the binding entry is recorded as “binds” in assay [3], “binds” in assay [4] and “no binding” in assay [5].
